Values joined by “and” are separate entries in the source; they are usually repeats but may differ in a detail not shown here. Equal entries are not always repeated. This is one part of the list. Single values are uncertain here, since repeats match poorly.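 HEK293T cells were given each compound shortly before transfection with a reporter in which red mCherry is followed by the SARS-CoV-2 frameshift element and then GFP in the −1 frame, so GFP appears only after frameshifting.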

In the experiment the test system is HEK293T. The experiment is described as follows: percent viability (nuclei count) relative to control; higher = more viable cells. The following applies: 10 µM; 24 h.
For the compound `C[C@]12CCC(=O)C=C1C=C[C@@H]1[C@@H]2CC[C@@]2(C)[C@H]1CC[C@@]21CCC(=O)O1`, the percent viability worked out at 181%.

Turning to `N[C@@H](CC(=O)N1CCn2c(nnc2C(F)(F)F)C1)Cc1cc(F)c(F)cc1F`, the percent viability amounted to 194%. With `COc1ccc2cc3[n+](cc2c1OC)CCc1cc2c(cc1-3)OCO2` the figure was 307%; with `COc1cc2c(c(OC)c1OC)-c1c(cc3c(c1OC)OCO3)C[C@H](C)[C@@](C)(O)C2` [besigomsin], 232%. Regarding `CN(C)C(=N)NC(=N)N` [Metformin], the percent viability amounted to 262%.

`C=CCc1ccccc1OCC(O)CNC(C)C` (centres undefined): the percent viability was found to be 362%. Turning to `Cc1ccc(C(=O)c2cc(O)c(O)c([N+](=O)[O-])c2)cc1` [tolcapone], the percent viability is 216%.

`Cc1ccccc1OCC(O)CO` (centres undefined) [mephenesin]: the percent viability is 330%. With `CC1CCCC(C)N1CCCCNC(=O)C(Oc1ccccc1)c1ccccc1` (centres undefined) [oxiramide] the figure was 199%; with `O=c1oc2cc(O)ccc2s1` [tioxolone], 336%; with `O=C(O)CCCC[C@@H]1SC[C@@H]2NC(=O)N[C@@H]21` [biotin], 185% and 260%.

Turning to `CCN(CCCCOC(=O)c1ccc(OC)c(OC)c1)C(C)Cc1ccc(OC)cc1` (centres undefined) [mebeverine], the percent viability was 136%.

In the case of `CC(C)NCC(O)COc1cccc2ccccc12` (centres undefined) [propranolol], the percent viability stood at 198%. For `Nc1nc(N)nc(-c2cc(Cl)ccc2Cl)n1` [irsogladine], the percent viability was 290% and 233%. As to `O=C(OOC(=O)c1ccccc1)c1ccccc1`, the percent viability turned out to be 368%. The figure for `CCN(CC)CC(=O)Oc1ccc(NC(C)=O)cc1` [propacetamol] is 219%. Take `CC[C@H]1OC(=O)[C@H](C)C(=O)[C@H](C)[C@@H](O[C@@H]2O[C@H](C)C[C@H](N(C)C)[C@H]2O)[C@](C)(OC)C[C@@H](C)C(=O)[C@H](C)[C@H]2N(CCCCn3cnc(-c4cccnc4)c3)C(=O)O[C@]12C` [telithromycin]: the percent viability is 226%.

In the case of `O=C1C[C@@]2(C(=O)N1)C(=O)N(Cc1ccc(Br)cc1F)C(=O)c1cccn12` [ranirestat], the percent viability came to 62.6%.

`CC[C@@H]1/C=C(\C)C[C@H](C)C[C@H](OC)[C@H]2O[C@@](O)(C(=O)C(=O)N3CCCC[C@H]3C(=O)O[C@H](/C(C)=C/[C@@H]3CC[C@H](Cl)[C@H](OC)C3)[C@H](C)[C@@H](O)CC1=O)[C@H](C)C[C@@H]2OC` [Pimecrolimus]: the percent viability is 283%. Consider `NS(=O)(=O)c1cc2c(cc1Cl)N=C(CSCc1ccccc1)NS2(=O)=O`, for which the percent viability is 219%. As to `COC(=O)Nc1nc2cc(C(=O)c3ccc(F)cc3)ccc2[nH]1` [flubendazole], the percent viability came out at 23.6%. The figure for `CCCCCCCCCC(=O)N[C@@H](Cc1c[nH]c2ccccc12)C(=O)N[C@@H](CC(N)=O)C(=O)N[C@@H](CC(=O)O)C(=O)N[C@@H]1C(=O)NCC(=O)N[C@@H](CCCN)C(=O)N[C@@H](CC(=O)O)C(=O)N[C@H](C)C(=O)N[C@@H](CC(=O)O)C(=O)NCC(=O)N[C@H](CO)C(=O)N[C@@H]([C@H](C)CC(=O)O)C(=O)N[C@@H](CC(=O)c2ccccc2N)C(=O)O[C@@H]1C` is 196%.

`CC[C@@H](C(=O)[C@@H](C)[C@@H](O)[C@H](C)CCc1ccc(C)c(O)c1C(=O)O)[C@H]1O[C@](CC)([C@H]2CC[C@](O)(CC)[C@H](C)O2)C[C@@H]1C` [lasalocid]: the percent viability is 122%. Take `CC(C)N1CCN(c2ccc(OCC3COC(Cn4cncn4)(c4ccc(Cl)cc4Cl)O3)cc2)CC1` (centres undefined) [terconazole]: the percent viability turned out to be 95.7%. With `CC(CN(C)C)CN1c2ccccc2CCc2ccccc21` (centres undefined), the percent viability came out at 471%.

`O=S(=O)([O-])NC1CCCCC1.[Na+]` [sodium cyclamate]: the percent viability is 158%.

Turning to `CN(C)CCCN1c2ccccc2CCc2ccc(Cl)cc21` [clomipramine], the percent viability came to 396%. `O=C(O)CCNC(=O)c1ccccc1` [betamipron]: the percent viability was found to be 308%.

Consider `Cc1cc(=O)oc2cc(O)ccc12` [hymecromone], for which the percent viability turned out to be 299%. The figure for `C[C@](N)(Cc1ccc(O)c(O)c1)C(=O)O` is 214%; for `CO/N=C(\C(=O)N[C@@H]1C(=O)N2C(C(=O)O)=C(CSc3nnnn3C)CS[C@H]12)c1csc(N)n1` [Cefmenoxime] it is 231%. With `CC(O)(P(=O)(O)O)P(=O)(O)O`, the percent viability is 393%. For the compound `CO[C@@]12[C@H](COC(N)=O)C3=C(C(=O)C(C)=C(N)C3=O)N1C[C@@H]1N[C@@H]12` [Mitomycin C], the percent viability worked out at 253%. As for `CCOC(=O)/C=C(C)/C=C/C=C(C)/C=C/c1c(C)cc(OC)c(C)c1C` [etretinate], the percent viability was 280%. With `CC1Oc2ccc(Cl)cc2N(CC(O)CO)C1=O` (centres undefined) [diproxadol] the figure was 127%; with `C[C@@H]1CN(c2c(F)c(F)c3c(=O)c(C(=O)O)cn(C4CC4)c3c2F)C[C@H](C)N1` [orbifloxacin], 300%. On to `O=C(O)CCCCC(=O)O`, for which the percent viability amounted to 280%.

`Clc1cccc(Cl)c1NC1=NCCN1`: the percent viability stood at 143%.

On to `NC(=O)NCCC[C@H](N)C(=O)O`, for which the percent viability is 232% and 218%.

The values above are taken from the supplement of paper PMC8256030.
